{"sequences": {"note": "By UniProt entry, the sequences of proteins in these tests, tags left out. Where a name states a change or a piece, a line headed by the entry shows the natural chain unless it says otherwise.", "UniProt Q9H936": "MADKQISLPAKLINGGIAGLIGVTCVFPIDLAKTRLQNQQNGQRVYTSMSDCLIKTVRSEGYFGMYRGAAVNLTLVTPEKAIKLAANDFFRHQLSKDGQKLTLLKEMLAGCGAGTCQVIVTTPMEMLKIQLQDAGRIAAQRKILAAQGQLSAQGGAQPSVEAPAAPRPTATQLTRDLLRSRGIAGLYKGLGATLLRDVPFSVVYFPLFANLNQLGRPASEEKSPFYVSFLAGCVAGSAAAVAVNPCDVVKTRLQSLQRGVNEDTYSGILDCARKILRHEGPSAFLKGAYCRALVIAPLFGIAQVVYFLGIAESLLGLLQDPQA", "UniProt Q149N8": "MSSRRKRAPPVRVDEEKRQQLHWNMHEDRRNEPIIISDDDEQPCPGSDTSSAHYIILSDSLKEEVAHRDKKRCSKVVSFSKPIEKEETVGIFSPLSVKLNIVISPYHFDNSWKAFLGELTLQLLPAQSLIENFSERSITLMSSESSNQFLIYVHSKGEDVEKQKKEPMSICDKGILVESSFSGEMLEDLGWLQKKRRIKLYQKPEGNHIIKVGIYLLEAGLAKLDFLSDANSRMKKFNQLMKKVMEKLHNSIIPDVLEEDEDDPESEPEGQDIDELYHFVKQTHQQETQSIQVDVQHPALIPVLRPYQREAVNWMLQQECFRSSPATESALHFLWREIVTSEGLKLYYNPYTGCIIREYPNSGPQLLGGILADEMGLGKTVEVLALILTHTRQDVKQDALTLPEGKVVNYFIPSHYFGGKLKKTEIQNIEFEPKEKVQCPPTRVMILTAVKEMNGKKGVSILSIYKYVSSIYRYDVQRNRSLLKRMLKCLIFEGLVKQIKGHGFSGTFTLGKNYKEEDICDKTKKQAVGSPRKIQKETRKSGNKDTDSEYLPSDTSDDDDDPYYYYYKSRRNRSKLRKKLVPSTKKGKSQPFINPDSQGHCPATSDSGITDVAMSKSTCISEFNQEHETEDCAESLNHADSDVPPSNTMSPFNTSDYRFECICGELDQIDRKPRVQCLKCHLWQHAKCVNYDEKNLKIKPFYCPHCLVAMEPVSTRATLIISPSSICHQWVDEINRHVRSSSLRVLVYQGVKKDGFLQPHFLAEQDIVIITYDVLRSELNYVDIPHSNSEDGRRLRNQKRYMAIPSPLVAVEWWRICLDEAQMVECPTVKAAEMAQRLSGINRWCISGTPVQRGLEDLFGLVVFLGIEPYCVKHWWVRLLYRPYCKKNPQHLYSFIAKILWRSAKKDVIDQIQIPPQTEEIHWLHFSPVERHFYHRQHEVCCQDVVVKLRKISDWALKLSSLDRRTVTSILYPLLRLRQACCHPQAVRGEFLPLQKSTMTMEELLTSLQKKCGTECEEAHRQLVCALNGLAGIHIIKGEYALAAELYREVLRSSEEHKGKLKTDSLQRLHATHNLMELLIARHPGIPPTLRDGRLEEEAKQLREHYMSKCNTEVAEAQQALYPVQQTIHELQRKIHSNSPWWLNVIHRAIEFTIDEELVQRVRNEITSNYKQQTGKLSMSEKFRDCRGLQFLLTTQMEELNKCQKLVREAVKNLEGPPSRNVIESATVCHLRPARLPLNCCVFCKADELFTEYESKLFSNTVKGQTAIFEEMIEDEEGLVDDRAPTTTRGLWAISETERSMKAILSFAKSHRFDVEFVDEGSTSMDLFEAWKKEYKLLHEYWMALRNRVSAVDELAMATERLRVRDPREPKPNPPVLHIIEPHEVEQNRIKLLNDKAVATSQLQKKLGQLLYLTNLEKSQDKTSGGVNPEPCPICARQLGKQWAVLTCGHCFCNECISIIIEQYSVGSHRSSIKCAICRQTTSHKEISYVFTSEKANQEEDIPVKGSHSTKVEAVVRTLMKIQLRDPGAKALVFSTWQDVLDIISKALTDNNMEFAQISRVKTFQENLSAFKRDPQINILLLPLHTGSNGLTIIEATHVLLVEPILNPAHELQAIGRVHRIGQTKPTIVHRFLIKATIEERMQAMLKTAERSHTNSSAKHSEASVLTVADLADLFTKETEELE", "UniProt Q15758": "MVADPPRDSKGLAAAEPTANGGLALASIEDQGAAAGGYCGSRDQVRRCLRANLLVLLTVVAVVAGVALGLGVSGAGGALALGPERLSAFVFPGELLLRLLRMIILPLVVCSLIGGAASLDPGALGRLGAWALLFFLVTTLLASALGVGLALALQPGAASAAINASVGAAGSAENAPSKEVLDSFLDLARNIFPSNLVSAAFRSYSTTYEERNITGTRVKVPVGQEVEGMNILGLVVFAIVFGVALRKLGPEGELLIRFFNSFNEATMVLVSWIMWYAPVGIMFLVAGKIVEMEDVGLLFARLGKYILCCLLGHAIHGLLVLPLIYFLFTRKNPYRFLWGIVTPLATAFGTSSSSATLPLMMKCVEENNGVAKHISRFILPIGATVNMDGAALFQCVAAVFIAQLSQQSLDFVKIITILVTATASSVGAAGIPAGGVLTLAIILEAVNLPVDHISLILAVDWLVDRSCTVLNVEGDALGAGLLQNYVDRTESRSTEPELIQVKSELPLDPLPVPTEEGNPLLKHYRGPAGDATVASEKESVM", "UniProt P78324, whole entry, looked up": "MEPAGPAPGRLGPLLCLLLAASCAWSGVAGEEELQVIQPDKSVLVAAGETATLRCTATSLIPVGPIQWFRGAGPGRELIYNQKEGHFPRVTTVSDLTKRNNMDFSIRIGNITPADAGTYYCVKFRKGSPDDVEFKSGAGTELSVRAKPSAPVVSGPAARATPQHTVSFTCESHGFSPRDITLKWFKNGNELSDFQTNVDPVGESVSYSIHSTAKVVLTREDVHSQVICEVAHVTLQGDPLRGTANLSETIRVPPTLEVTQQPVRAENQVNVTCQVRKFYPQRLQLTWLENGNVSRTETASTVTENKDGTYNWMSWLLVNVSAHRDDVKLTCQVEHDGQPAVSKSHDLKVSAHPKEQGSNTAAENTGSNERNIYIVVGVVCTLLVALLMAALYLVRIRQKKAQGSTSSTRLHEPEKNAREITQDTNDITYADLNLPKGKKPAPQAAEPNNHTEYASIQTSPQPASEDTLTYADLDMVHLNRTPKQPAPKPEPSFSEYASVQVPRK", "UniProt Q8N6T7, whole entry": "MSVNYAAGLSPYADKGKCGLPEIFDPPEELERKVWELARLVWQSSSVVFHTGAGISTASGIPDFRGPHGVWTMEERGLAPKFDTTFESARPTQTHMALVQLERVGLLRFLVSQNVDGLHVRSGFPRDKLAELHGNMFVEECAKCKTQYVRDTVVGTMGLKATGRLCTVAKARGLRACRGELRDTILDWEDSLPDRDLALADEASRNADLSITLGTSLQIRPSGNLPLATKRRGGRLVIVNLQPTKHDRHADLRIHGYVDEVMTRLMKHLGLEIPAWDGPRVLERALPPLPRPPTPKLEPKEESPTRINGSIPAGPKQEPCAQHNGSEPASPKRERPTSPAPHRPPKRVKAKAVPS", "UniProt Q5FBB7": "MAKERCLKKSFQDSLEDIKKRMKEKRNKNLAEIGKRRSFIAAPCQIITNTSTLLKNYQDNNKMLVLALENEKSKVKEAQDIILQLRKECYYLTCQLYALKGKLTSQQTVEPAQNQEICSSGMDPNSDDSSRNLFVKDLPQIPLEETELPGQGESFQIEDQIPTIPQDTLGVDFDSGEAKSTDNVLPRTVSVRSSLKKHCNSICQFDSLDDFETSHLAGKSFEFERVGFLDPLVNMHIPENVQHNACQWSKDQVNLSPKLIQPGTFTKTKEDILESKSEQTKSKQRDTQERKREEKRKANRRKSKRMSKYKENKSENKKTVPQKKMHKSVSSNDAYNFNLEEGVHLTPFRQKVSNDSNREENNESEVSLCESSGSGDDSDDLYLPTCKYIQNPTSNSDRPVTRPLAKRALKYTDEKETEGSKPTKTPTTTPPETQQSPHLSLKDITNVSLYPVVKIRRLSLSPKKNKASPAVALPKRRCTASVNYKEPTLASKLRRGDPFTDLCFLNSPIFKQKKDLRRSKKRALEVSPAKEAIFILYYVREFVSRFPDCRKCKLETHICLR", "UniProt Q9UH03, whole entry, looked up": "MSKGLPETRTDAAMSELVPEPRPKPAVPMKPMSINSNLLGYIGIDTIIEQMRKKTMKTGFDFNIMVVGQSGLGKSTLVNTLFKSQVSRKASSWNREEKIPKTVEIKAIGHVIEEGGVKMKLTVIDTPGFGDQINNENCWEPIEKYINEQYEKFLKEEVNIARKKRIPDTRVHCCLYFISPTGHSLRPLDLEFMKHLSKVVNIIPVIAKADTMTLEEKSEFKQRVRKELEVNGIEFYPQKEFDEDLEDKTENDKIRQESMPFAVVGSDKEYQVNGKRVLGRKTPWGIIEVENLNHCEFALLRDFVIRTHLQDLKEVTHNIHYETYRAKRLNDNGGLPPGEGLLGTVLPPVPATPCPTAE", "UniProt Q96FS4": "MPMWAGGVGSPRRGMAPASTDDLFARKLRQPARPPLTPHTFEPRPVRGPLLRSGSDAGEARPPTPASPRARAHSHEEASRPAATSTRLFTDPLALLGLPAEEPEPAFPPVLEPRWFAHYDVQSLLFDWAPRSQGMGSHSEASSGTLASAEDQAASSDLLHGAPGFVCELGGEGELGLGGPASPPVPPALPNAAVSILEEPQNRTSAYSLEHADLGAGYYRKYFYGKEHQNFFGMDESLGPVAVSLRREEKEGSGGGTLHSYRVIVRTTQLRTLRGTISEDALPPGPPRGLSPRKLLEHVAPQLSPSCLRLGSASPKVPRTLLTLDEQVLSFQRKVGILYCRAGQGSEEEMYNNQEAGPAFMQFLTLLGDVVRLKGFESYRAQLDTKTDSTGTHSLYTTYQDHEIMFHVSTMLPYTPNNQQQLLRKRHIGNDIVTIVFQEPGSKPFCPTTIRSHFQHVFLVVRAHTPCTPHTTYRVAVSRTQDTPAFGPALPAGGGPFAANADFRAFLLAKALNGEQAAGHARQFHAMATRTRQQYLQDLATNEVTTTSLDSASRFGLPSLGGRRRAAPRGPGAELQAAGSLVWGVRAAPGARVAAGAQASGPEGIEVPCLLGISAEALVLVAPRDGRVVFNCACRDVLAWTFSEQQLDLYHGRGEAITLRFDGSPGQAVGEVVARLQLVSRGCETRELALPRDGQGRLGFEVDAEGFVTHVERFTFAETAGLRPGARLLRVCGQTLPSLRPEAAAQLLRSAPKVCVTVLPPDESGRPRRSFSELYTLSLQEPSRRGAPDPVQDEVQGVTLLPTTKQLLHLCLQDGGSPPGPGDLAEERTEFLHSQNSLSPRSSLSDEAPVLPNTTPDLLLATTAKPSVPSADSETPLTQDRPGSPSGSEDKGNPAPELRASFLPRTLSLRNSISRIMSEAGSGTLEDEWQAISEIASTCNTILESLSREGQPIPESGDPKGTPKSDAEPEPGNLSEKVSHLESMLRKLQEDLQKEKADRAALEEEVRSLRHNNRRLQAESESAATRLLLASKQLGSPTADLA", "UniProt Q92599": "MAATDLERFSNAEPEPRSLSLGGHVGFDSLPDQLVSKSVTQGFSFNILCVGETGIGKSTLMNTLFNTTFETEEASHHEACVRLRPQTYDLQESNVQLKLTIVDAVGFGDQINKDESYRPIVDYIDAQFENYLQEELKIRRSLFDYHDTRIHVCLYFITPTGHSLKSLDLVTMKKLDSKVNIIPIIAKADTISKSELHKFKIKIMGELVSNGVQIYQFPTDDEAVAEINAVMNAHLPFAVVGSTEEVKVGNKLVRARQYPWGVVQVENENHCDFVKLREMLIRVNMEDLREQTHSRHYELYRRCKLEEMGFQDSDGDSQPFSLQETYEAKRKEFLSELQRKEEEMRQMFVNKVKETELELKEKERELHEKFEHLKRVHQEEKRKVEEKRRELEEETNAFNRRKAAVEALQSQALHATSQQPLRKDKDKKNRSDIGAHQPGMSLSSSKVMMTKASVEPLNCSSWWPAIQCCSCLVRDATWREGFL", "UniProt P05141": "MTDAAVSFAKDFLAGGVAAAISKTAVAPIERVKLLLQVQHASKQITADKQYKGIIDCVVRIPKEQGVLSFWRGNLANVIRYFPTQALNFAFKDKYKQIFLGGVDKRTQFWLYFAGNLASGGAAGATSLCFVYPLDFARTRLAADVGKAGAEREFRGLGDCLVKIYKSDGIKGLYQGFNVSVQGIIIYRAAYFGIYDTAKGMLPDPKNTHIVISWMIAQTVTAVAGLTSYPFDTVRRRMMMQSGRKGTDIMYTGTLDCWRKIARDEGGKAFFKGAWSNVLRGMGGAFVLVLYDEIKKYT", "UniProt Q9BRV8": "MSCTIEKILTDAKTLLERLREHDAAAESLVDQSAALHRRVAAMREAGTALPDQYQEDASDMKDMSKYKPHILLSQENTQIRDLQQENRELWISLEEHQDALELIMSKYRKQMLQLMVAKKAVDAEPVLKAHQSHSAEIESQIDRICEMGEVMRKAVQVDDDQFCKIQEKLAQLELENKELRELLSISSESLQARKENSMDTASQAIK"}, "source": "the supplement of paper PMC12067093", "about": "“Discovery and optimisation of a covalent ligand for TRIM25 and its application to targeted protein ubiquitination” (Chemical Science, 2025)", "compound": "CC1Cc2ccccc2N1C(=O)C1CCCN(C1)C(=O)CCl (mixture of isomers) [TRIM25 ligand 11 (diastereomer mixture)]", "assay": "probe-labelled cysteine peptide fold change vs DMSO (competition) (log2 fold change); higher = less target engagement (more negative = stronger competition)", "details": "THP-1, incubation time: 4 h", "note": "The list shows a part of the results.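 Also: competitive chemoproteomic profiling in live THP-1 cells with an iodoacetamide desthiobiotin (IA-DTB) probe, comparing probe-labelled peptide intensities in compound-treated cells against DMSO-treated controls.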", "data": [{"target": "SGO2_Q562F6_1041_HITSEADSDPGNPVELCK (UniProt Q562F6)", "values": [{"measurement": "probe-labelled cysteine peptide fold change", "setting": "10 µM", "result": 0.061}, {"measurement": "probe-labelled cysteine peptide fold change", "setting": "50 µM", "result": -0.0335}]}, {"target": "SHCBP1_Q8NEM2_426_GDTFVDCTGADIK (UniProt Q8NEM2)", "values": [{"measurement": "probe-labelled cysteine peptide fold change", "setting": "10 µM", "result": 0.0136}, {"measurement": "probe-labelled cysteine peptide fold change", "setting": "50 µM", "result": 0.0133}]}, {"target": "SKIV2L_Q15477_579_GRCDEQASGLTSLDLTTSSEK (UniProt Q15477)", "values": [{"measurement": "probe-labelled cysteine peptide fold change", "setting": "10 µM", "result": 0.03}, {"measurement": "probe-labelled cysteine peptide fold change", "setting": "50 µM", "result": -0.0554}]}, {"target": "SETD2_Q9BYW2_1766_LTCLELIQNTHSQSCLK (UniProt Q9BYW2)", "values": [{"measurement": "probe-labelled cysteine peptide fold change", "setting": "10 µM", "result": 0.129}, {"measurement": "probe-labelled cysteine peptide fold change", "setting": "50 µM", "result": 0.25}]}, {"target": "SLC25A22_Q9H936_271_GVNEDTYSGILDCAR (UniProt Q9H936)", "values": [{"measurement": "probe-labelled cysteine peptide fold change", "setting": "10 µM", "result": 0.166}, {"measurement": "probe-labelled cysteine peptide fold change", "setting": "50 µM", "result": -0.0367}]}, {"target": "SHPRH_Q149N8_1025_QLVCALNGLAGIHIIK (UniProt Q149N8)", "values": [{"measurement": "probe-labelled cysteine peptide fold change", "setting": "10 µM", "result": 0.0951}, {"measurement": "probe-labelled cysteine peptide fold change", "setting": "50 µM", "result": -0.274}]}, {"target": "SLC1A5_Q15758_467_SCTVLNVEGDALGAGLLQNYVDR (UniProt Q15758)", "values": [{"measurement": "probe-labelled cysteine peptide fold change", "setting": "10 µM", "result": -0.0169}, {"measurement": "probe-labelled cysteine peptide fold change", "setting": "50 µM", "result": 0.588}]}, {"target": "SETDB1_Q15047_819_CLDDIAK (UniProt Q15047)", "values": [{"measurement": "probe-labelled cysteine peptide fold change", "setting": "10 µM", "result": -0.0088}, {"measurement": "probe-labelled cysteine peptide fold change", "setting": "50 µM", "result": 0.117}]}, {"target": "SIRPA_P78324_331_LTCQVEHDGQPAVSK (UniProt P78324)", "values": [{"measurement": "probe-labelled cysteine peptide fold change", "setting": "10 µM", "result": -0.0264}, {"measurement": "probe-labelled cysteine peptide fold change", "setting": "50 µM", "result": 0.0686}]}, {"target": "SIRT6_Q8N6T7_141_LAELHGNMFVEECAK (UniProt Q8N6T7)", "values": [{"measurement": "probe-labelled cysteine peptide fold change", "setting": "10 µM", "result": 0.087}, {"measurement": "probe-labelled cysteine peptide fold change", "setting": "50 µM", "result": 0.00561}]}, {"target": "SGO1_Q5FBB7_478_CTASVNYK (UniProt Q5FBB7)", "values": [{"measurement": "probe-labelled cysteine peptide fold change", "setting": "10 µM", "result": 0.000507}, {"measurement": "probe-labelled cysteine peptide fold change", "setting": "50 µM", "result": -0.118}]}, {"target": "SFPQ_P23246_431_CSEGVFLLTTTPR (UniProt P23246)", "values": [{"measurement": "probe-labelled cysteine peptide fold change", "setting": "10 µM", "result": 0.0453}, {"measurement": "probe-labelled cysteine peptide fold change", "setting": "50 µM", "result": 0.126}]}, {"target": "SEPT3_Q9UH03_295_TPWGIIEVENLNHCEFALLR (UniProt Q9UH03)", "values": [{"measurement": "probe-labelled cysteine peptide fold change", "setting": "10 µM", "result": -0.0379}, {"measurement": "probe-labelled cysteine peptide fold change", "setting": "50 µM", "result": -0.18}]}, {"target": "SIPA1_Q96FS4_632_VVFNCACR (UniProt Q96FS4)", "values": [{"measurement": "probe-labelled cysteine peptide fold change", "setting": "10 µM", "result": 0.106}, {"measurement": "probe-labelled cysteine peptide fold change", "setting": "50 µM", "result": 0.266}]}, {"target": "SEPT8_Q92599_49_SVTQGFSFNILCVGETGIGK (UniProt Q92599)", "values": [{"measurement": "probe-labelled cysteine peptide fold change", "setting": "10 µM", "result": 0.0502}, {"measurement": "probe-labelled cysteine peptide fold change", "setting": "50 µM", "result": 0.117}]}, {"target": "SLC25A5_P05141_257_KGTDIMYTGTLDCWR (UniProt P05141)", "values": [{"measurement": "probe-labelled cysteine peptide fold change", "setting": "10 µM", "result": -0.0817}, {"measurement": "probe-labelled cysteine peptide fold change", "setting": "50 µM", "result": -0.062}]}, {"target": "SIKE1_Q9BRV8_146_ICEMGEVMR (UniProt Q9BRV8)", "values": [{"measurement": "probe-labelled cysteine peptide fold change", "setting": "10 µM", "result": -0.00677}, {"measurement": "probe-labelled cysteine peptide fold change", "setting": "50 µM", "result": -0.0739}]}]}
